Taken from: PubChem BioAssay AID652243 (Drosophila RNAi Screening Center, 2013)

Screen: 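Fly genes required for human androgen receptor driven transcription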 (primary screen)
System: Drosophila S2R+ cells
Knock-down reagent: long dsRNA against Drosophila genes
Timing: 72 h (48 h, then 24 h hormone)
Conditions: synthetic androgen R1881 at 10 nM for 24 h
Measurement: 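Firefly light from an androgen-responsive reporter and Renilla control light per well, raw and unnormalised, for each of two replicates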
Reading the numbers: firefly reporter light: higher = more light from androgen-responsive reporter; Renilla control light: higher = more constitutive control signal (cell number, transfection)
Hit rule: 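Hit when the log firefly-to-Renilla ratio dropped or increased by a fixed fold versus the mean of GFP or LacZ controls across duplicate plates; lowering cut given as 1.5 and as 3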
Calls: active = hit: reporter lowered or raised; inactive = no hit
The screen tested about 24,000 reagents; this is an unselected part of those that have a named target and a result. In the full data, 246 (1%) are marked active. 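Plates not normalised; calls are printed but the firefly/Renilla ratio behind them is not deposited; fold cut for lowering reported inconsistently.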 Raw values vary from plate to plate and are shown uncorrected. Unmarked entries are inactive. Names joined by + are all predicted targets of the reagent. Not given: the amount of reagent.

target gene | DRSC id | firefly reporter light, replicate 1 | firefly reporter light, replicate 2 | Renilla control light, replicate 1 | Renilla control light, replicate 2
SerRS-m (Seryl-tRNA synthetase, mitochondrial) | DRSC14096 | 1.22e5 | 1.11e5 | 1.77e6 | 2.20e6
Gli (Gliotactin) | DRSC03332 | 2.35e5 | 2.07e5 | 1.80e6 | 2.24e6
Top1 (Topoisomerase 1) | DRSC20295 | 2.30e5 | 2.70e5 | 2.48e6 | 2.98e6
CG5608 | DRSC15841 | 78152 | 1.11e5 | 6.18e5 | 7.19e5
CG10918 | DRSC20472 | 1.10e5 | 1.07e5 | 4.45e5 | 4.37e5
CG10918 | DRSC24162 | 5.24e5 | 5.19e5 | 6.04e5 | 6.99e5
CG12538 | DRSC14527 | 1.06e5 | 1.16e5 | 2.06e6 | 1.96e6
CG12538 | DRSC23603 | 7.71e5 | 7.53e5 | 1.23e6 | 1.24e6
Coq2 (Coenzyme Q biosynthesis protein 2) | DRSC16516 | 86986 | 91771 | 1.86e6 | 1.48e6
Coq2 (Coenzyme Q biosynthesis protein 2) | DRSC21366 | 8.90e5 | 6.69e5 | 3.07e6 | 2.72e6
Coq2 (Coenzyme Q biosynthesis protein 2) | DRSC29659 | 4.34e5 | 6.79e5 | 6.19e5 | 6.19e5
CG12057 | DRSC17797 | 4.50e5 | 5.21e5 | 3.55e6 | 3.69e6
CG34315 + Orc3 | DRSC07642 | 1.47e6 | 6.60e5 | 1.93e6 | 1.03e6
CG34315 + Orc3 | DRSC25371 | 5.26e5 | 4.33e5 | 4.04e5 | 3.64e5
mmy (mummy) | DRSC02002 | 2.58e5 | 3.79e5 | 8.61e5 | 7.66e5
CG31937 | DRSC00514 | 1.03e6 | 1.27e6 | 2.22e6 | 2.01e6
CG14111 | DRSC10114 | 1.78e5 | 2.10e5 | 1.31e6 | 1.74e6
CG14111 | DRSC27551 | 4.69e5 | 4.11e5 | 6.28e5 | 4.65e5
Obp83a (Odorant-binding protein 83a) | DRSC12362 | 59990 | 1.07e5 | 1.10e6 | 1.05e6
CG6610 | DRSC10674 | 1.86e5 | 1.90e5 | 2.29e6 | 2.16e6
CG14543 | DRSC14887 | 1.65e5 | 2.88e5 | 2.28e6 | 2.63e6
CG14543 | DRSC26647 | 4.22e5 | 3.57e5 | 5.24e5 | 6.22e5
CG1638 | DRSC15132 | 1.66e5 | 1.67e5 | 2.32e6 | 2.72e6
CG1638 | DRSC29986 | 4.43e5 | 3.33e5 | 1.18e6 | 1.17e6
CG17768 + LSm-4 | DRSC02845 | 2.13e5 | 2.04e5 | 1.62e6 | 1.62e6
CG6142 | DRSC15976 | 1.54e5 | 1.65e5 | 2.10e6 | 1.90e6
CG5323 | DRSC06929 | 1.20e5 | 1.78e5 | 2.20e6 | 1.94e6
sstn (stepping stone) | DRSC10753 | 1.66e5 | 1.20e5 | 2.01e6 | 1.28e6
sstn (stepping stone) | DRSC29335 | 5.19e5 | 6.41e5 | 1.48e6 | 1.48e6
SdhAL (Succinate dehydrogenase, subunit A (flavoprotein)-like) | DRSC10539 | 1.38e6 | 5.81e5 | 1.25e6 | 7.78e5
NAAT1 (Nutrient Amino Acid Transporter 1) | DRSC18300 | 2.04e5 | 2.54e5 | 2.11e6 | 1.60e6
NAAT1 (Nutrient Amino Acid Transporter 1) | DRSC25615 | 4.87e5 | 5.82e5 | 4.59e5 | 5.93e5
Top3beta (Topoisomerase 3beta) | DRSC18724 | 69973 | 55729 | 4.93e5 | 3.65e5
Acbp6 (Acyl-CoA binding protein 6) | DRSC10217 | 2.44e5 | 1.60e5 | 2.84e6 | 3.98e6
Itpr (Inositol 1,4,5,-trisphosphate receptor) | DRSC12354 | 1.14e5 | 67999 | 2.98e6 | 1.05e6
Itpr (Inositol 1,4,5,-trisphosphate receptor) | DRSC28770 | 1.00e6 | 1.13e6 | 1.05e6 | 1.06e6
east (enhanced adult sensory threshold) | DRSC18770 | 4.20e5 | 4.23e5 | 2.38e6 | 2.53e6
east (enhanced adult sensory threshold) | DRSC23626 | 6.71e5 | 5.99e5 | 4.70e5 | 4.16e5
vex (vexed) | DRSC19481 | 3.90e5 | 4.33e5 | 3.20e6 | 3.01e6
vex (vexed) | DRSC19651 | 5.47e5 | 4.96e5 | 3.14e6 | 2.84e6
vex (vexed) | DRSC21843 | 5.39e5 | 5.18e5 | 1.01e6 | 1.07e6
vex (vexed) | DRSC25475 | 8.58e5 | 7.31e5 | 1.33e6 | 1.19e6
LysE (Lysozyme E) | DRSC08675 | 1.04e5 | 1.44e5 | 1.29e6 | 1.64e6
Arfrp1 (ADP-ribosylation factor related protein 1) | DRSC18417 | 1.84e5 | 1.97e5 | 7.98e5 | 9.53e5
Acsx1R + Acsx1L | DRSC24222 | 9.46e5 | 8.96e5 | 8.88e5 | 9.59e5
CG34215 | DRSC38697 | 7.27e5 | 7.41e5 | 1.71e6 | 2.09e6
CG31274 + MESK4 | DRSC13202 | 3.09e5 | 2.46e5 | 5.80e5 | 6.18e5
CG15922 | DRSC15128 | 2.06e5 | 2.55e5 | 3.53e6 | 3.52e6
fkh (fork head) | DRSC16949 | 1.34e5 | 1.72e5 | 2.18e6 | 2.87e6
fkh (fork head) | DRSC28213 | 6.27e5 | 8.95e5 | 1.22e6 | 1.78e6
CG11360 | DRSC17134 | 2.60e5 | 3.07e5 | 3.71e6 | 3.29e6
CG32281 | DRSC08236 | 9.44e5 | 8.70e5 | 1.65e6 | 1.75e6
Vinc (Vinculin) | DRSC18728 | 86989 | 59903 | 5.07e5 | 4.07e5
CG7924 | DRSC10931 | 8.63e5 | 1.29e6 | 8.66e5 | 2.03e6
CG7924 | DRSC25661 | 6.15e5 | 9.05e5 | 8.68e5 | 7.66e5
CG4022 | DRSC10395 | 1.64e5 | 1.00e5 | 2.80e6 | 2.14e6
CG4022 | DRSC27317 | 3.12e5 | 3.16e5 | 5.96e5 | 6.94e5
GstE14 (Glutathione S transferase E14) | DRSC06881 | 3.97e5 | 2.88e5 | 1.43e6 | 2.08e6
GstE14 (Glutathione S transferase E14) | DRSC26779 | 2.92e5 | 2.24e5 | 5.08e5 | 2.95e5

Laid out differently: results already given.
CG4022 [DRSC27317]
- firefly reporter light, replicate 1: 3.12e5
- firefly reporter light, replicate 2: 3.16e5
- Renilla control light, replicate 1: 5.96e5
- Renilla control light, replicate 2: 6.94e5

GstE14 (Glutathione S transferase E14) [DRSC06881]
- firefly reporter light, replicate 1: 3.97e5
- firefly reporter light, replicate 2: 2.88e5
- Renilla control light, replicate 1: 1.43e6
- Renilla control light, replicate 2: 2.08e6

GstE14 (Glutathione S transferase E14) [DRSC26779]
- firefly reporter light, replicate 1: 2.92e5
- firefly reporter light, replicate 2: 2.24e5
- Renilla control light, replicate 1: 5.08e5
- Renilla control light, replicate 2: 2.95e5
